{"source": "paper PMC10919858", "binders": {"B1": {"name": "LBV-M-HA (protein, UniProt Q6JAM6 1-202)", "chain": "MNFLRKIVKNCKDEEIPKPGTPSAPPDDDDLWMPPPEYVPLTQIKGKENVRNFCINGEIKICSPNGYSFRILRHILKSFDNVYSGNRRLIGVVKVVIGLVLSASPVPEGMNWVYKLRRTLIFQWAESHGPLEGEELEYSQEITWDDEAEFVSLQIRVSAKQCHIQGRLWCINMNSKACQLWADMGLKTQQSQEDENTSLLLE"}}, "biological_target": "T1, TRIM72-flag (mouse) (UniProt Q1XH17)", "T1 sequence": "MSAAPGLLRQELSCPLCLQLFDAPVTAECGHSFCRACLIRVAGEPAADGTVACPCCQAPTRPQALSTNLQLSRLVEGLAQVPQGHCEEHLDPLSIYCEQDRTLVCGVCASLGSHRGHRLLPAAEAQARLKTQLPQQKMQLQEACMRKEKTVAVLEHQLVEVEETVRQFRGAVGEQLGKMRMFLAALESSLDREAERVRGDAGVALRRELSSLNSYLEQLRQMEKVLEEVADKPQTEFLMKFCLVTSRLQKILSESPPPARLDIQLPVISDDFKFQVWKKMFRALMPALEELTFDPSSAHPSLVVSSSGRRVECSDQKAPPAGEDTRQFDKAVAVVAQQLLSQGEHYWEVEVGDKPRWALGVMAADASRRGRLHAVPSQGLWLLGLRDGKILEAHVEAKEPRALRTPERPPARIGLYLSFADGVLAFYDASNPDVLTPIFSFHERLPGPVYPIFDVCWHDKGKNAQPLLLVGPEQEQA", "assay": "co-IP", "note": "These are yes or no findings as the source states them, for the method shown. In cells and extracts the contact can be indirect. Some entries that bind do so weakly or less than the wild type. Tags and fused reporters may be left off the sequences shown.", "data": [{"binder": "B1", "values": [{"measurement": "binding", "result": "binds"}]}]}
